Data reported in article PMC7080818.
Results are given in words; binding and its absence hold for the method and conditions named. Binding seen in cells or lysates may run through a third protein. Some binding calls cover weakened binding; strength is not graded here.

Protein sequences, listed by entry. Tags and fused reporters are not part of them. Residues count along the entry.
UniProt P10220, residues 1-293: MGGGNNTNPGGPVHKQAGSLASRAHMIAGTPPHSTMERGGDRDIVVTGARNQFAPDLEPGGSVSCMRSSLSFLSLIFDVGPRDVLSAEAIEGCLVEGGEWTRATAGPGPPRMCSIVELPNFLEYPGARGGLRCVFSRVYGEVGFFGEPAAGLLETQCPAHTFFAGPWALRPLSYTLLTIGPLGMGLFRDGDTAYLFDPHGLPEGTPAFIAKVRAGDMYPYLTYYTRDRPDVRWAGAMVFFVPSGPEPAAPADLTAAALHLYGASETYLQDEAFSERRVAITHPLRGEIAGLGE
UniProt P03186, residues 1-235: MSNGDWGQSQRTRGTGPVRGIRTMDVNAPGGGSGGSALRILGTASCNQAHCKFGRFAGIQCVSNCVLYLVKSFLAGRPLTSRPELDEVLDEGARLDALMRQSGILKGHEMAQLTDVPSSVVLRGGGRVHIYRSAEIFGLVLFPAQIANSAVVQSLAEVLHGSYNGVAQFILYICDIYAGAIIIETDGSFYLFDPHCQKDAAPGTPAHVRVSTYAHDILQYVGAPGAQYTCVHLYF
UniProt Q14258: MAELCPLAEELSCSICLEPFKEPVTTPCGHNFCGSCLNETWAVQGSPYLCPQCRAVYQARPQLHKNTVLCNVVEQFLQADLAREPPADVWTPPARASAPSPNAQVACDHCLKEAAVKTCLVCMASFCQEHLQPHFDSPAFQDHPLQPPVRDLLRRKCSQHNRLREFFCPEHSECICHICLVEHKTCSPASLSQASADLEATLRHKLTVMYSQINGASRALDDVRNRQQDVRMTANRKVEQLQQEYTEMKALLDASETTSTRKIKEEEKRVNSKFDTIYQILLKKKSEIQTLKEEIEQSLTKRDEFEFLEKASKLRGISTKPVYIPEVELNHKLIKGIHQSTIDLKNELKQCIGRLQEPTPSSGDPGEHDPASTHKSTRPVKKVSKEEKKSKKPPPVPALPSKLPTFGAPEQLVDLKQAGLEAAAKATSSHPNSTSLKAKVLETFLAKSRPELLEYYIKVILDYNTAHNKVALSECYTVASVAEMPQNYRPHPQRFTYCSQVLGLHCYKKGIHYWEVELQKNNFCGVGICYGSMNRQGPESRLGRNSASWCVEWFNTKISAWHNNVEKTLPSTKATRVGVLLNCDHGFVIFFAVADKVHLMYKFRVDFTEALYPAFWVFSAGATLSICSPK

Tests used:
[1] = target: 3xFLAG-tagged HSV-UL36 (amino acid residues 1-293), N-terminal catalytic domain of the HSV-1 large tegument protein (herpes simplex virus-1 (HSV-1)) (UniProt P10220); experiment: co-IP; HeLa cells transfected with the FLAG-tagged viral enzymes; NP-40 lysates (50 mM Tris-HCl pH 7.6, 150 mM NaCl, 1% Igepal) incubated 4 h with anti-FLAG agarose, eluted with 3x-FLAG peptide; blots probed for endogenous pan 14-3-3 and TRIM25
[2] = target: 3xFLAG-BPLF1 (amino acid residues 1-235), N-terminal catalytic domain of the EBV large tegument protein (Epstein-Barr virus (EBV)) (UniProt P03186); experiment: as above

## TRIM25 ubiquitin ligase (endogenous) (from UniProt Q14258 1-630)
[1]
  binding: binds
[2]
  binding: binds
